# Measured values published in the supplement of paper PMC10849652.
# Amino acid sequences for entries named in this document (tags omitted). A change or cut given only in a name is not applied to a line headed by its entry.
# UniProt P49590: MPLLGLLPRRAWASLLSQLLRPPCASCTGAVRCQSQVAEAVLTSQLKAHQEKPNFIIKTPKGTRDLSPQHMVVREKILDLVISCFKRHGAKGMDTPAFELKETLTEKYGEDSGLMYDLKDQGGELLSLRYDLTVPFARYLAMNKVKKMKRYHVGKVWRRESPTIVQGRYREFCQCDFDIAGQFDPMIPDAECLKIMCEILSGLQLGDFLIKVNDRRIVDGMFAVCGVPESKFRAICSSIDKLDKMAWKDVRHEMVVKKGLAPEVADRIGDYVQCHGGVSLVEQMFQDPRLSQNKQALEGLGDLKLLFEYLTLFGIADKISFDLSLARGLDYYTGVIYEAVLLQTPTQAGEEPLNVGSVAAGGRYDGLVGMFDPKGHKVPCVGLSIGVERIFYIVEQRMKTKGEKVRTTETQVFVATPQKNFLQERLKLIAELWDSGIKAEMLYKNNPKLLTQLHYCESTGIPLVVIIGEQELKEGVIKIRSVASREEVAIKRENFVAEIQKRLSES
# UniProt P48637: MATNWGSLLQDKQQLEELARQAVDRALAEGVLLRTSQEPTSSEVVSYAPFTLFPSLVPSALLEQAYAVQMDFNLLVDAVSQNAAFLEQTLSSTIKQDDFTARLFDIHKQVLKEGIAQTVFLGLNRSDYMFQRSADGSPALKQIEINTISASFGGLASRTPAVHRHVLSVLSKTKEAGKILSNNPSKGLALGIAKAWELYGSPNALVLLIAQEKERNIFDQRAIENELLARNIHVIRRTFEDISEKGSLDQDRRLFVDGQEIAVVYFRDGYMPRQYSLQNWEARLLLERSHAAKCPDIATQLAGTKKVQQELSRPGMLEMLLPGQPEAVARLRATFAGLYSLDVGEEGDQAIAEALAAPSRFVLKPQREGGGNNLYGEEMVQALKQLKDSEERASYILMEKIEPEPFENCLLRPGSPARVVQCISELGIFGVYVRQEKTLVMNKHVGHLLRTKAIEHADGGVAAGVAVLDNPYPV
# UniProt P02724: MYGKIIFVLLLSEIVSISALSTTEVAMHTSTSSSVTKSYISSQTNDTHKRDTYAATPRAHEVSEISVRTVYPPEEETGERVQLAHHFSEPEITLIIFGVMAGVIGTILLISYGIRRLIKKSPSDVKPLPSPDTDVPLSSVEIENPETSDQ
# UniProt Q9H0R4: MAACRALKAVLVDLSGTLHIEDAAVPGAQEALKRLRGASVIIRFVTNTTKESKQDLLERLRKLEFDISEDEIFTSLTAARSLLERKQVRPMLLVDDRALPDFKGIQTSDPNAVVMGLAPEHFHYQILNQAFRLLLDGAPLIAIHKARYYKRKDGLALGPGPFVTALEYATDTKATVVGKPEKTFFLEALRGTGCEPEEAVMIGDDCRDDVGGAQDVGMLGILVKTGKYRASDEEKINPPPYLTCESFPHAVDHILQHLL
# UniProt P06396, whole entry, looked up: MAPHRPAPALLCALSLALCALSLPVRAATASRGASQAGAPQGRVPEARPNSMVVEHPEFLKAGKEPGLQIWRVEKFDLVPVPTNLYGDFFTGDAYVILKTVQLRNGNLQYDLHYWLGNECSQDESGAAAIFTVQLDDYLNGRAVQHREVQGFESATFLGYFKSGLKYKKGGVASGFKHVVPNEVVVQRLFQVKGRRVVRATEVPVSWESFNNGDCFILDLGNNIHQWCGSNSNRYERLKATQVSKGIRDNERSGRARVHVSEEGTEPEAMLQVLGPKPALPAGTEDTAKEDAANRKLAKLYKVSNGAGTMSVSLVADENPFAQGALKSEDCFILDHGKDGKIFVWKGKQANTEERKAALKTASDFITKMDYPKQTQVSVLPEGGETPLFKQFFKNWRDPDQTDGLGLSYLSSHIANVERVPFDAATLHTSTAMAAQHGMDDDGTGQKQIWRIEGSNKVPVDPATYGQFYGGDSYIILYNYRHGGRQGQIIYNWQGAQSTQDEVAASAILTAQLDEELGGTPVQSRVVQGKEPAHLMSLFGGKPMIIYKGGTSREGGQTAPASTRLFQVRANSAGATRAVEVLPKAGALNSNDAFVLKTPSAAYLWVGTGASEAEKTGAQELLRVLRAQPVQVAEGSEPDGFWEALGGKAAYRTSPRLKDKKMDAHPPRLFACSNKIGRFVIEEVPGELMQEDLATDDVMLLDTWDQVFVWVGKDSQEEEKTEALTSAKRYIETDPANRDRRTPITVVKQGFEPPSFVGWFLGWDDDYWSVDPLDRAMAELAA
# UniProt Q969Y2: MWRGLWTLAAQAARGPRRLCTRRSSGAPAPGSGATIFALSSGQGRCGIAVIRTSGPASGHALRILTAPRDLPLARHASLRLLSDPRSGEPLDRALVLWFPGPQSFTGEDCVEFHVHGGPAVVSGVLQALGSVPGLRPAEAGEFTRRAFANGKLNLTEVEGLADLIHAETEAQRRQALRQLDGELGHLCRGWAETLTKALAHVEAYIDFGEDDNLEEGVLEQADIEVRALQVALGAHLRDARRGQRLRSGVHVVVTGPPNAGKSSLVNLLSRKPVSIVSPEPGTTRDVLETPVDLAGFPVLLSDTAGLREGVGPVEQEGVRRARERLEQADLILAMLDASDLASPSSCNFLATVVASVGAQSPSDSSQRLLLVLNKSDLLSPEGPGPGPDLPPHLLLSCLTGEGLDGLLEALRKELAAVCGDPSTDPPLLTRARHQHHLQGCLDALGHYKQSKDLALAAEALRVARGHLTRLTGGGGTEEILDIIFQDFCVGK
# UniProt Q9P035: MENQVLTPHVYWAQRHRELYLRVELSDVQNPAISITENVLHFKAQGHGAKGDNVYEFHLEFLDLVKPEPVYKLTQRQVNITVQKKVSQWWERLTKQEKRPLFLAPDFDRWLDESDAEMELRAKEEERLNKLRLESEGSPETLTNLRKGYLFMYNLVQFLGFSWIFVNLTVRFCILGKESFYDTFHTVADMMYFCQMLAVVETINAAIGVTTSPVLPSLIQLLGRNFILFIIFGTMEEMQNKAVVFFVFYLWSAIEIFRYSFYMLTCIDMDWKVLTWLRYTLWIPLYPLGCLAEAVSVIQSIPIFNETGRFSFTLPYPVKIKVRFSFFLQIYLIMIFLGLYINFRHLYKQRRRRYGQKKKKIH
# UniProt P28161: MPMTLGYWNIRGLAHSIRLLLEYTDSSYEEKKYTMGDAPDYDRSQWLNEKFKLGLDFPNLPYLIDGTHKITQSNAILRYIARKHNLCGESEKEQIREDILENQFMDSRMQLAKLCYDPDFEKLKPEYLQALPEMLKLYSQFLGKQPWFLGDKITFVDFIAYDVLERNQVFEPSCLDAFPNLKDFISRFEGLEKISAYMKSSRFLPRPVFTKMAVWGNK
# UniProt P53701: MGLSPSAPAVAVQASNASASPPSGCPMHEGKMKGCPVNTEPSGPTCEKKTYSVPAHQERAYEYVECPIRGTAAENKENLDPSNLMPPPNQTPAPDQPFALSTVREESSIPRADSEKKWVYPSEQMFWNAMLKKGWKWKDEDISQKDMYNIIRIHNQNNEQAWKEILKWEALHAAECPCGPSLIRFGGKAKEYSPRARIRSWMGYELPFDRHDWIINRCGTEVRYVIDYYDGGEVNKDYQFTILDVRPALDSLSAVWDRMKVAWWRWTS
# UniProt P16401, whole entry, looked up: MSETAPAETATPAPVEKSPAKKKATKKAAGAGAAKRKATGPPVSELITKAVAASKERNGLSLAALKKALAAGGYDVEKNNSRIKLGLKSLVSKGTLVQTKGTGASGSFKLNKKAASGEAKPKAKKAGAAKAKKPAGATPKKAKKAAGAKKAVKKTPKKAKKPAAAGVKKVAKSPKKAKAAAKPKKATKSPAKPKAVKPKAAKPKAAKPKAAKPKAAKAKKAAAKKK
# UniProt Q16836: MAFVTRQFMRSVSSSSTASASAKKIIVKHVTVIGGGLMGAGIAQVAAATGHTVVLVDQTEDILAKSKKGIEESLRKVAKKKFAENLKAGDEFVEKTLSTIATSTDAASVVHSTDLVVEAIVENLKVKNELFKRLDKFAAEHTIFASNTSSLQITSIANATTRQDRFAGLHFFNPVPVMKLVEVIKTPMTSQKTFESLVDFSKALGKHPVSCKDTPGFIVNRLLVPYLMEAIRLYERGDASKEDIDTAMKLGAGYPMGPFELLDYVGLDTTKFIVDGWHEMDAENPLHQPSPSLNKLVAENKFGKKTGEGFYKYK
# UniProt Q12789: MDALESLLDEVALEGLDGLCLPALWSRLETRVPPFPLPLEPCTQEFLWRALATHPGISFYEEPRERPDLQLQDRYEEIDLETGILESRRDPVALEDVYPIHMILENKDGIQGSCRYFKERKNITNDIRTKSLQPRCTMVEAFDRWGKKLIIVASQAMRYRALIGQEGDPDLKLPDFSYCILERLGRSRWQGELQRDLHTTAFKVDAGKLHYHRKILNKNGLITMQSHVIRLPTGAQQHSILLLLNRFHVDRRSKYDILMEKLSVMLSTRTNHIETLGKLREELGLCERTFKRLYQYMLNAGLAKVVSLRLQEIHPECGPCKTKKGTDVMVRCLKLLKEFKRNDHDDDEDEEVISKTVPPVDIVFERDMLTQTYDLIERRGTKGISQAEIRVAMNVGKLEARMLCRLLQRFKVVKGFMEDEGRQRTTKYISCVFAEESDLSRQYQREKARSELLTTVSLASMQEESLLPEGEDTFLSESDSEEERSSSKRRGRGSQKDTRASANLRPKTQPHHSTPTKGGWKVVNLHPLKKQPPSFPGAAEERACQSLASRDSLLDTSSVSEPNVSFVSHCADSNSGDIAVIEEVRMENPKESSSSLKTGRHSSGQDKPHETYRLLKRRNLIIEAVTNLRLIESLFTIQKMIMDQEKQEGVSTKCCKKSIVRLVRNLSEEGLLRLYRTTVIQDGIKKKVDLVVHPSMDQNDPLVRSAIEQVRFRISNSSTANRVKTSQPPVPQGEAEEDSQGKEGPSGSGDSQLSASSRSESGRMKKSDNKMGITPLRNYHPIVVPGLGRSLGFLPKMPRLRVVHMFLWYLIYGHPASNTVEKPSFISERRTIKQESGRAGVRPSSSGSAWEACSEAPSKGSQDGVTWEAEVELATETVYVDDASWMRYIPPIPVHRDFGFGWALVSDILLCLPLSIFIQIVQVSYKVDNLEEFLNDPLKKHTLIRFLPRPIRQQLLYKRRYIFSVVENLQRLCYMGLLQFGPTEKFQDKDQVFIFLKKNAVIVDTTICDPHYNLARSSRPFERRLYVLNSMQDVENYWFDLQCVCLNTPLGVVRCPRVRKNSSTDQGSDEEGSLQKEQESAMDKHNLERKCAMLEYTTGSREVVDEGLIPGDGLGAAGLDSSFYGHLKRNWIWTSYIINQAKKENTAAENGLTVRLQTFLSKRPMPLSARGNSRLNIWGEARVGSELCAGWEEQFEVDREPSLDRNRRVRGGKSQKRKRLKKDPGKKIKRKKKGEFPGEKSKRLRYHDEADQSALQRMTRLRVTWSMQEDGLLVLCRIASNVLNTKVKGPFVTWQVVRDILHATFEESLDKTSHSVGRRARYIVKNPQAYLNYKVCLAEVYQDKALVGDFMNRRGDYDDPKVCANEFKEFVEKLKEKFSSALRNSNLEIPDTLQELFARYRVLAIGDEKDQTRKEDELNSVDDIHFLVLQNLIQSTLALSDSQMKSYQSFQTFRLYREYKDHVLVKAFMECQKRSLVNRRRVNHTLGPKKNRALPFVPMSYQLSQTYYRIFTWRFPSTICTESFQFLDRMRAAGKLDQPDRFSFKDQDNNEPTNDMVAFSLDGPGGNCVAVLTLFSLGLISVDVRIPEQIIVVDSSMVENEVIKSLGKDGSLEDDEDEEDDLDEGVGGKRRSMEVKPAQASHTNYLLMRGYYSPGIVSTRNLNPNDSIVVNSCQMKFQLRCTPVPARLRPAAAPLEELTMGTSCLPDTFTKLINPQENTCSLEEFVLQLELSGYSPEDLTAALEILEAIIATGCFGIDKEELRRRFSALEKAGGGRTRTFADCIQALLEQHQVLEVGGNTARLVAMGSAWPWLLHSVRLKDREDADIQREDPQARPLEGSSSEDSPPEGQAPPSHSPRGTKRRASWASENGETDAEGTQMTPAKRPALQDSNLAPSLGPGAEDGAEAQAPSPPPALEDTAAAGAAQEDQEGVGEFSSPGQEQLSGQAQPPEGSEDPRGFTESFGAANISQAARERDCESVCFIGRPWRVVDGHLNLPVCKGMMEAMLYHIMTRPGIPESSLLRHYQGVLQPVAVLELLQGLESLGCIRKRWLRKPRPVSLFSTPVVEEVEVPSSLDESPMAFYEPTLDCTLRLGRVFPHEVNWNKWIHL
# UniProt P09211: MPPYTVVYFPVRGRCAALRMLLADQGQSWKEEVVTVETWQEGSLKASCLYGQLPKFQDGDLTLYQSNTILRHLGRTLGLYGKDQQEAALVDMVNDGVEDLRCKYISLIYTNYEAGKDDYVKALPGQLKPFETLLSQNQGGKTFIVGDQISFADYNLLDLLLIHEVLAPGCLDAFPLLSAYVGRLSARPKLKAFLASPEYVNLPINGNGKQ
# UniProt P10412, whole entry, looked up: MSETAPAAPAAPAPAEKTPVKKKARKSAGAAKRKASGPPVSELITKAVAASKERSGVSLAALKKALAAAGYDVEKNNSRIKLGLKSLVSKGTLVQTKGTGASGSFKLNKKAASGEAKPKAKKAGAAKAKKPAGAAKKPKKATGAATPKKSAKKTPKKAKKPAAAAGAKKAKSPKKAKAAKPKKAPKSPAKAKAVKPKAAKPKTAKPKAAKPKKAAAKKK
# The other results are listed elsewhere or left out. Residues, ends and D or L forms follow the SMILES beside them. *: point of attachment. Cbz = O=C(OCc1ccccc1)*
# Assays:
# Assay in all cases: log2 fold change, soluble protein after heating vs DMSO (PISA); higher = thermal stabilisation; K562 cells, 10 uM, 30 min; active = over 0.2 and 3.5 SD of the protein, either way, in both replicates (recomputed)
# [1] = compound: C1COCCN1CCN2C3=CC=CC=C3N=C2NC(=O)C4=CC(=CC=C4)[N+](=O)[O-] [IRAK-1-4 Inhibitor I]
# In short: (§1)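 Soluble protein was defined as the supernatant after 21,000xg for 90 min. It came from K562 cells at 2×10^6 cells/mL given 10 μM compound for 30 min, heated in aliquots for 3 min across 48°C-58°C, pooled, and extracted in PBS with 0.5% NP-40 at 4°C, and was quantified by TMTpro 16plex LC-MS/MS with equalised channel sums. Thermal stability against control samples, from duplicates, is reported as log2 fold change.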
# [2] = compound: C=CC(=O)N1CCC[C@@H](n2nc(-c3ccc(Oc4ccccc4)cc3)c3c(N)ncnc32)C1 [ibrutinib]
# In short: as §1
# [3] = compound: CC(=O)c1cnc2ccc(-c3cc(Cl)c(O)c(Cl)c3)nc2c1N[C@H]1CC[C@H](CN(C)C)CC1
# In short: as §1
# [4] = compound: CC(C)(C)Cn1c(N)nc2ccc(-c3[nH]c(C(C)(C)C)nc3-c3ccc(F)cc3)nc21 [ralimetinib]
# In short: as §1
# [5] = compound: CC(C)(O)CC(=O)NCCn1ccc2ncnc(Nc3ccc(Oc4cccc(C(F)(F)F)c4)c(Cl)c3)c21
# In short: as §1
# [6] = compound: CC(C)C1=C2N=C(C=C(N2N=C1)NCC3=CC=CC=C3)NCCCCCCN
# In short: as §1
# [7] = compound: CC(C)C[C@@H](C=O)NC(=O)[C@H](CC(C)C)NC(=O)[C@H](CC(C)C)NC(=O)OCc1ccccc1
# In short: as §1
# [8] = compound: CC(C)N(C[C@H]1O[C@@H](n2cnc3c(N)ncnc32)[C@H](O)[C@@H]1O)[C@H]1C[C@@H](CCc2nc3cc(C(C)(C)C)ccc3[nH]2)C1 [pinometostat]
# In short: as §1
# [9] = compound: CC1=C(C(CC(=O)N1)C2=CC=C(C=C2)C(F)(F)F)C(=O)NC3=C(C=C4C(=C3)C=NN4)F
# In short: as §1
# [10] = compound: CC1=C(C2=C(C=C1)C(=O)C3=CC=CC=C3N2CCCN)C
# In short: as §1
Target,log2 fold change [1],log2 fold change [2],log2 fold change [3],log2 fold change [4],log2 fold change [5],log2 fold change [6],log2 fold change [7],log2 fold change [8],log2 fold change [9],log2 fold change [10]
GTPBP1 (UniProt O00178),inactive: 0.026,inactive: 0.009,inactive: -0.02,inactive: 0,inactive: 0.014,inactive: 0.001,inactive: 0.037,inactive: 0.038,inactive: -0.008,inactive: -0.053
HEBP1 (UniProt Q9NRV9),inactive: 0.237,inactive: 0.06,inactive: -0.022,inactive: 0.135,inactive: 0.069,inactive: 0.394,inactive: -0.267,inactive: 0.101,inactive: -0.158,inactive: 0.018
HARS2 (UniProt P49590),inactive: 0.029,inactive: 0.036,inactive: -0.048,inactive: -0.014,inactive: -0.047,inactive: 0.003,inactive: -0.016,inactive: -0.014,inactive: 0.035,inactive: 0.043
HEATR1 (UniProt Q9H583),inactive: 0.07,inactive: 0.071,inactive: -0.03,inactive: 0.092,inactive: -0.003,inactive: -0.071,inactive: 0.324,inactive: -0.004,inactive: -0.116,inactive: 0.263
HDDC3 (UniProt Q8N4P3),inactive: 0.079,inactive: 0.004,inactive: -0.019,inactive: -0.045,inactive: -0.008,inactive: 0.025,inactive: 0.042,inactive: 0.026,inactive: 0.027,inactive: 0.02
GSS (UniProt P48637),inactive: 0.038,inactive: 0,inactive: 0.002,inactive: -0.013,inactive: -0.013,inactive: 0.059,inactive: -0.028,inactive: -0.053,inactive: 0.016,inactive: 0.002
GTSF1 (UniProt Q8WW33),inactive: 0.027,inactive: 0.021,inactive: 0.028,inactive: 0.303,inactive: 0.007,inactive: 0.063,inactive: -0.072,inactive: -0.039,inactive: 0.002,inactive: -0.026
HEMGN (UniProt Q9BXL5),inactive: 0.003,inactive: -0.021,inactive: 0.003,inactive: -0.018,inactive: 0.042,inactive: 0.057,inactive: 0.016,inactive: -0.03,inactive: 0.018,inactive: 0.07
GTF2F1 (UniProt P35269),inactive: -0.032,inactive: -0.009,inactive: 0.156,inactive: -0.009,inactive: -0.01,inactive: 0.02,inactive: 0.015,inactive: -0.071,inactive: 0.044,inactive: 0.061
HBE1 (UniProt P02100),inactive: -0.01,inactive: -0.012,inactive: -0.028,inactive: -0.077,inactive: -0.007,inactive: 0.078,inactive: -0.056,inactive: -0.087,inactive: 0.05,inactive: 0.251
GYPA (UniProt P02724),inactive: 0.191,inactive: -0.058,inactive: -0.039,inactive: 0.049,inactive: -0.071,inactive: 0.263,inactive: -0.025,inactive: 0.03,inactive: -0.097,inactive: 0.074
GSTZ1 (UniProt G3V4T6),inactive: 0.027,inactive: 0.018,inactive: -0.03,inactive: -0.069,inactive: 0.053,inactive: 0.076,inactive: 0.054,inactive: -0.024,inactive: -0.024,inactive: 0
GTF2A2 (UniProt P52657),inactive: 0.013,inactive: -0.028,inactive: -0.002,inactive: -0.078,inactive: -0.026,inactive: 0.051,inactive: -0.019,inactive: -0.064,–,active: -0.357
GTF2E2 (UniProt P29084),inactive: -0.041,inactive: -0.008,inactive: -0.104,inactive: -0.012,inactive: -0.033,inactive: -0.137,inactive: 0.075,inactive: 0.056,–,inactive: 0.056
HDHD2 (UniProt Q9H0R4),inactive: 0.007,inactive: -0.019,inactive: 0.021,inactive: -0.006,inactive: -0.168,inactive: 0.024,inactive: -0.037,inactive: -0.018,–,inactive: 0.003
GSN (UniProt P06396),inactive: 0.041,inactive: 0.119,inactive: 0.019,inactive: -0.047,inactive: 0.075,inactive: 0.068,inactive: 0.004,inactive: -0.069,inactive: 0.019,inactive: -0.01
GTPBP3 isoform 2 (UniProt Q969Y2),inactive: 0.014,inactive: 0.007,inactive: -0.008,inactive: -0.041,inactive: -0.006,inactive: 0.007,inactive: -0.044,inactive: -0.031,inactive: 0.009,inactive: 0.049
HACD3 (UniProt Q9P035),inactive: 0.001,inactive: -0.043,inactive: 0.005,inactive: -0.089,inactive: -0.006,inactive: -0.088,inactive: -0.014,inactive: 0.007,inactive: -0.014,inactive: 0.047
GSTM2 (UniProt P28161),inactive: 0.026,inactive: -0.059,inactive: -0.031,inactive: -0.018,inactive: -0.001,inactive: 0.032,inactive: 0.051,inactive: -0.027,inactive: -0.028,inactive: 0.018
HCCS (UniProt P53701),inactive: 0.024,inactive: 0.01,inactive: -0.001,inactive: -0.103,inactive: -0.001,inactive: -0.011,inactive: 0.044,inactive: -0.014,inactive: 0.017,inactive: 0
GTF2I (UniProt P78347),inactive: -0.044,inactive: 0.099,inactive: -0.061,inactive: -0.005,inactive: -0.018,inactive: -0.099,inactive: 0.238,inactive: 0.149,inactive: 0.023,inactive: -0.105
HDGFL2 (UniProt Q7Z4V5),inactive: 0.01,inactive: -0.039,inactive: 0.011,inactive: -0.019,inactive: 0.041,inactive: -0.017,inactive: -0.022,inactive: -0.051,–,active: -0.709
H1-5 (UniProt P16401),inactive: -0.167,inactive: 0.02,inactive: 0.066,inactive: 0.24,inactive: 0.255,inactive: -0.109,inactive: 0.212,inactive: 0.357,inactive: 0.038,inactive: 0.718
HADH isoform 2 (UniProt Q16836),inactive: 0.022,inactive: 0.006,inactive: -0.035,inactive: -0.039,inactive: -0.004,inactive: 0.081,inactive: -0.022,inactive: -0.033,inactive: -0.013,inactive: 0.024
GTPBP2 (UniProt Q9BX10),inactive: -0.008,inactive: 0.039,inactive: -0.068,inactive: 0.107,inactive: -0.042,inactive: -0.042,inactive: 0.075,inactive: 0.176,inactive: -0.022,inactive: 0.1
GTF3C1 (UniProt Q12789),inactive: 0.023,inactive: -0.196,inactive: -0.01,inactive: -0.135,inactive: -0.003,inactive: -0.169,inactive: -0.058,inactive: 0.147,inactive: 0.276,inactive: 0.105
HEATR6 (UniProt Q6AI08),inactive: 0.119,inactive: -0.043,inactive: -0.309,inactive: -0.018,inactive: -0.069,inactive: -0.042,inactive: 0.096,inactive: -0.061,inactive: 0.07,inactive: 0.11
GSTP1 (UniProt P09211),inactive: 0.12,inactive: -0.038,inactive: -0.074,inactive: -0.021,inactive: -0.015,inactive: 0.016,inactive: -0.023,inactive: -0.026,–,inactive: 0.03
GUK1 isoform 2 (UniProt Q16774),inactive: -0.076,inactive: -0.033,inactive: -0.162,inactive: 0.038,inactive: -0.234,inactive: -0.033,inactive: 0.167,inactive: -0.037,–,inactive: 0.092
H1-4 (UniProt P10412),inactive: -0.195,inactive: 0.133,inactive: 0.048,inactive: 0.11,inactive: 0.086,inactive: -0.087,inactive: 0.189,inactive: 0.369,inactive: 0.075,inactive: 0.727

# Quoted from the listing for reference:
Target,log2 fold change [1],log2 fold change [2],log2 fold change [3],log2 fold change [4],log2 fold change [5],log2 fold change [6],log2 fold change [7],log2 fold change [8],log2 fold change [9],log2 fold change [10]
GTF2E2 (UniProt P29084),inactive: -0.041,inactive: -0.008,inactive: -0.104,inactive: -0.012,inactive: -0.033,inactive: -0.137,inactive: 0.075,inactive: 0.056,–,inactive: 0.056
HDHD2 (UniProt Q9H0R4),inactive: 0.007,inactive: -0.019,inactive: 0.021,inactive: -0.006,inactive: -0.168,inactive: 0.024,inactive: -0.037,inactive: -0.018,–,inactive: 0.003
GSN (UniProt P06396),inactive: 0.041,inactive: 0.119,inactive: 0.019,inactive: -0.047,inactive: 0.075,inactive: 0.068,inactive: 0.004,inactive: -0.069,inactive: 0.019,inactive: -0.01
GTPBP3 isoform 2 (UniProt Q969Y2),inactive: 0.014,inactive: 0.007,inactive: -0.008,inactive: -0.041,inactive: -0.006,inactive: 0.007,inactive: -0.044,inactive: -0.031,inactive: 0.009,inactive: 0.049
HACD3 (UniProt Q9P035),inactive: 0.001,inactive: -0.043,inactive: 0.005,inactive: -0.089,inactive: -0.006,inactive: -0.088,inactive: -0.014,inactive: 0.007,inactive: -0.014,inactive: 0.047
GSTM2 (UniProt P28161),inactive: 0.026,inactive: -0.059,inactive: -0.031,inactive: -0.018,inactive: -0.001,inactive: 0.032,inactive: 0.051,inactive: -0.027,inactive: -0.028,inactive: 0.018
HCCS (UniProt P53701),inactive: 0.024,inactive: 0.01,inactive: -0.001,inactive: -0.103,inactive: -0.001,inactive: -0.011,inactive: 0.044,inactive: -0.014,inactive: 0.017,inactive: 0
GTF2I (UniProt P78347),inactive: -0.044,inactive: 0.099,inactive: -0.061,inactive: -0.005,inactive: -0.018,inactive: -0.099,inactive: 0.238,inactive: 0.149,inactive: 0.023,inactive: -0.105
